From ChEMBL document CHEMBL4303122, “Identification of potential treatments for COVID-19 through artificial intelligence-enabled phenomic analysis of human cells infected with SARS-CoV-2” (2020)
Several values for one entry are separate records, joined by “and”; a condition that tells them apart may be missing. Equal entries are not always repeated. Whole data set: some 1,600 compounds, median “Hit score” near 0.13, cut for the highest 2% near 0.46. This is one part of the list.

system: SARS-CoV-2; assay: Antiviral activity against SARS-CoV-2 (USA-WA1/2020 strain) measured by imaging in HRCE cells at MOI 0.4 after 96 hrs (reported as hit score from 0-1 for on-disease vs off-disease activity: scores >0.6 considered hits); type: functional, Homo sapiens

SMILES	Hit score
CC(=O)SCC(Cc1ccccc1)C(=O)NCC(=O)OCc1ccccc1 (stereo not given) [RACECADOTRIL]	0.133
N[C@@H](CSCCCO)C(=O)O [FUDOSTEINE]	0.1737
CC(C)(C)NC(=O)[C@@H]1CN(Cc2cccnc2)CCN1C[C@@H](O)C[C@@H](Cc1ccccc1)C(=O)N[C@H]1c2ccccc2C[C@H]1O.O	0.1733
COc1ccc(C(CN(C)C)C2(O)CCCCC2)cc1 (stereo not given) [VENLAFAXINE]	0.1052
CC1COc2c(N3CCN(C)CC3)c(F)cc3c(=O)c(C(=O)O)cn1c23 (stereo not given) [OFLOXACIN]	0.08432
C[C@H]1O[C@@H](O[C@H]2[C@@H](O)C[C@H](O[C@H]3[C@@H](O)C[C@H](O[C@H]4CC[C@@]5(C)[C@H](CC[C@@H]6[C@@H]5C[C@@H](O)[C@]5(C)[C@@H](C7=CC(=O)OC7)CC[C@]65O)C4)O[C@@H]3C)O[C@@H]2C)C[C@H](O)[C@@H]1O [DIGOXIN]	0.06169
CN1CCN(c2cc3c(cc2F)c(=O)c(C(=O)O)cn3-c2ccc(F)cc2)CC1 [DIFLOXACIN]	0.0587
CCCC(=O)OCOC(=O)C1=C(C)NC(C)=C(C(=O)OC)C1c1cccc(Cl)c1Cl (stereo not given) [CLEVIDIPINE]	0.1396
NC(CO)C(=O)NNCc1ccc(O)c(O)c1O (stereo not given) [BENSERAZIDE]	0.1106
CN(C)CCCN1c2ccccc2CCc2ccccc21 [IMIPRAMINE]	0.1243
Nc1nc(O)c2ncn(CCC(CO)CO)c2n1 [PENCICLOVIR]	0.1329
Fc1ccc([C@@H]2CCNC[C@H]2COc2ccc3c(c2)OCO3)cc1 [PAROXETINE]	0.0967
CN(C/C=C/C#CC(C)(C)C)Cc1cccc2ccccc12 [TERBINAFINE]	0.2015
O=c1[nH]cnc2c1ncn2[C@H]1CC[C@@H](CO)O1 [DIDANOSINE]	0.1328
CN(C)C(=O)Oc1cccc([N+](C)(C)C)c1 [NEOSTIGMINE]	0.1096
CCOC(=O)[C@H](CCc1ccccc1)N[C@@H](C)C(=O)N1Cc2cc(OC)c(OC)cc2C[C@H]1C(=O)O [MOEXIPRIL]	0.07718
CN1CCC(OC(c2ccccc2)c2ccccc2)CC1	0.2582
COc1cc(/C=C/C(=O)CC(=O)/C=C/c2ccc(O)c(OC)c2)ccc1O [CURCUMIN]	0.2205
O=C1NCCN1CCN1CCC(c2cn(-c3ccc(F)cc3)c3ccc(Cl)cc23)CC1 [SERTINDOLE]	0.05774
O=C1CCC(N2C(=O)c3ccccc3C2=O)C(=O)N1 (stereo not given) [THALIDOMIDE]	0.1381
CCCCc1nc(Cl)c(CO)n1Cc1ccc(-c2ccccc2-c2nnn[nH]2)cc1 [LOSARTAN]	0.0016
Clc1ccc(C(Cn2ccnc2)OCc2csc3c(Cl)cccc23)c(Cl)c1 (stereo not given) [SERTACONAZOLE]	0.03803
COC(=O)c1csc(C(=O)c2c[nH]c3ccccc23)n1	0.2485
Cc1nc2n(c(=O)c1CCN1CCC(c3noc4cc(F)ccc34)CC1)CCCC2O (stereo not given) [PALIPERIDONE]	0.1513

3 entries from above, reformatted.
CC1COc2c(N3CCN(C)CC3)c(F)cc3c(=O)c(C(=O)O)cn1c23 (stereo not given) [OFLOXACIN]
  Hit score: 0.08432
CN(C)C(=O)Oc1cccc([N+](C)(C)C)c1 [NEOSTIGMINE]
  Hit score: 0.1096
CCCCc1nc(Cl)c(CO)n1Cc1ccc(-c2ccccc2-c2nnn[nH]2)cc1 [LOSARTAN]
  Hit score: 0.0016

Following part:

SMILES	Hit score
CCC(C)n1ncn(-c2ccc(N3CCN(c4ccc(OCC5COC(Cn6cncn6)(c6ccc(Cl)cc6Cl)O5)cc4)CC3)cc2)c1=O (stereo not given) [ITRACONAZOLE]	0.05218
CCOc1cc(N)c(Cl)cc1C(=O)NCC1CN(Cc2ccc(F)cc2)CCO1 (stereo not given) [MOSAPRIDE]	0.2146
CC(=O)OCC(=O)[C@@]12OC(C)(C)O[C@@H]1C[C@H]1[C@@H]3C[C@H](F)C4=CC(=O)C=C[C@]4(C)[C@@]3(F)[C@@H](O)C[C@@]12C [FLUOCINONIDE]	0.1388
O=C(O)CCNC(=O)c1ccc(/N=N/c2ccc(O)c(C(=O)O)c2)cc1 [BALSALAZIDE]	0.1738
O/N=C/c1cc[n+](COC[n+]2ccc(/C=N/O)cc2)cc1 [OBIDOXIME]	0.2635
CCN(CC)CCOc1ccccc1C(=O)CCc1ccccc1 [ETAFENONE]	0.08032
CNCCCN1c2ccccc2CCc2ccccc21 [DESIPRAMINE]	0.1518
Cc1ccsc1C(=CCCN1CCC[C@@H](C(=O)O)C1)c1sccc1C [TIAGABINE]	0.1375
C[n+]1ccccc1C=NO [PRALIDOXIME]	0.02154
O=C1OC(CN2CCOCC2)CN1/N=C/c1ccc([N+](=O)[O-])o1 (stereo not given) [FURALTADONE]	0.1983
C[C@H]1Oc2cc(cnc2N)-c2c(nn(C)c2C#N)CN(C)C(=O)c2ccc(F)cc21 [LORLATINIB]	0.2281
C#CC1(O)CC[C@H]2[C@@H]3CCC4=CC(=O)CC[C@@H]4[C@H]3CC[C@@]21CC (stereo not given in full) [NORGESTREL]	0.2054
Cn1c(=O)c2c(ncn2CCO)n(C)c1=O [ETOFYLLINE]	0.07134
C#C[C@]1(O)CC[C@H]2[C@@H]3CCC4=C/C(=N/O)CC[C@@H]4[C@H]3CC[C@@]21CC [NORELGESTROMIN]	0.07889
CC(C)NCC(O)COc1cccc2[nH]c3ccccc3c12 (stereo not given) [CARAZOLOL]	0.4815
CC(C)NCC(O)c1cc(O)cc(O)c1 (stereo not given) [METAPROTERENOL]	-0.1316
CCCCCCCCCCCCCCCCCCCCCC(=O)Nc1ccn([C@@H]2O[C@H](CO)[C@@H](O)[C@@H]2O)c(=O)n1 [ENOCITABINE]	0.3288
O=C(O)CCCCC1CCSS1 (stereo not drawn) [LIPOIC ACID, ALPHA]	0.1647
CCN(CC)Cc1cc(Nc2ccnc3cc(Cl)ccc23)ccc1O [AMODIAQUINE]	0.1195
OC[C@H]1O[C@@H](n2cnc3c2N=CNC[C@H]3O)C[C@@H]1O [PENTOSTATIN]	0.0932
CCCCCCCCCCCCCCCC(=O)O[C@@H]1[C@@H](O)[C@@H](O)[C@@H]([C@H](NC(=O)[C@@H]2C[C@@H](CCC)CN2C)[C@H](C)Cl)O[C@@H]1SC [CLINDAMYCIN PALMITATE]	0.1881
CCNCC(O)c1cccc(O)c1 (stereo not given) [ETILEFRINE]	-0.03688
CCOC(=O)N[C@@H]1CC[C@@H]2[C@@H](C1)C[C@H]1C(=O)O[C@H](C)[C@H]1[C@H]2/C=C/c1ccc(-c2cccc(F)c2)cn1 [VORAPAXAR]	0.1452
CCC(O)(c1ccccc1)c1cccc(C(F)(F)F)c1 (stereo not given) [FLUMECINOL]	0.1872

SMILES	Hit score
COc1nc(N)nc2c1ncn2[C@@H]1O[C@H](CO)[C@@H](O)[C@@H]1O [NELARABINE]	0.1307
COc1ccccc1N1CCN(CCCNc2cc(=O)n(C)c(=O)n2C)CC1	0.1524
C[C@]1(COc2ccc(N3CCC(Oc4ccc(OC(F)(F)F)cc4)CC3)cc2)Cn2cc([N+](=O)[O-])nc2O1	0.07377
O=C1[C@H](CC[C@H](O)c2ccc(F)cc2)[C@@H](c2ccc(O)cc2)N1c1ccc(F)cc1 [EZETIMIBE]	0.04755
O=S(=O)(O)c1cc(I)c(O)c2ncccc12 [8-HYDROXY-7-IODO-5-QUINOLINESULFONIC ACID]	0.2325
CC(=O)[C@@]1(O)CC[C@H]2[C@@H]3C[C@H](C)C4=CC(=O)C=C[C@]4(C)[C@@]3(F)[C@@H](O)C[C@@]21C [FLUOROMETHOLONE]	-0.1428
Cc1cnc(C(=O)NCCc2ccc(S(=O)(=O)NC(=O)NC3CCCCC3)cc2)cn1 [GLIPIZIDE]	0.0999
O=C(O)COCCN1CCN([C@H](c2ccccc2)c2ccc(Cl)cc2)CC1 [LEVOCETIRIZINE]	-0.05445
CNCC(O)c1ccc(O)cc1 (stereo not given) [OXEDRINE]	0.07332
CC(COc1ccccc1Cc1ccccc1)N1CCCCC1 (stereo not given) [BENPROPERINE]	0.02777
COC(=O)C1=C(C)NC(C)=C(C(=O)OCC(C)C)C1c1ccccc1[N+](=O)[O-] (stereo not given) [NISOLDIPINE]	0.4022
Oc1cc(O)c(Cl)cn1	0.1623
CN1CCN(c2c(F)cc3c(=O)c(C(=O)O)cn4c3c2SCC4)CC1 [RUFLOXACIN]	0.2005
OC[C@H]1O[C@@H](c2ccc(Cl)c(Cc3ccc(O[C@H]4CCOC4)cc3)c2)[C@H](O)[C@@H](O)[C@@H]1O [EMPAGLIFLOZIN]	0.03968
COC(=O)C1=C(C)NC(C)=C(C(=O)OCCN(C)Cc2ccccc2)C1c1cccc([N+](=O)[O-])c1 (stereo not given) [NICARDIPINE]	0.1855
Cc1ccccc1C(OCCN(C)C)c1ccccc1 (stereo not given) [ORPHENADRINE]	0.07501
O=C1C(O)=C([C@H]2CC[C@H](c3ccc(Cl)cc3)CC2)C(=O)c2ccccc21 [ATOVAQUONE]	0.1017
CNCc1cc(-c2ccccc2F)n(S(=O)(=O)c2cccnc2)c1 [VONOPRAZAN]	0.1252
CC1(C)CCC[C@]2(C)[C@H]3CC(=O)O[C@]3(C)[C@@H](O)C[C@@H]12	0.05012
CC(=O)[C@H]1CC[C@H]2[C@@H]3CC[C@H]4C[C@H](O)CC[C@]4(C)[C@H]3CC[C@]12C [BREXANOLONE]	0.07305 and 0.1505
C=CC1=C(C(=O)O)N2C(=O)[C@@H](NC(=O)/C(=N\OCC(=O)O)c3csc(N)n3)[C@H]2SC1 [CEFIXIME]	0.1035
CCCCC[C@H](O)/C=C/[C@@H]1[C@H]2C/C(=C/CCCC(=O)O)O[C@H]2C[C@H]1O [EPOPROSTENOL]	0.02737

Structures shown so far that contain a thiophene ring, fused or not (2):
SMILES	Hit score
Clc1ccc(C(Cn2ccnc2)OCc2csc3c(Cl)cccc23)c(Cl)c1 (stereo not given) [SERTACONAZOLE]	0.03803
Cc1ccsc1C(=CCCN1CCC[C@@H](C(=O)O)C1)c1sccc1C [TIAGABINE]	0.1375
